## Percent effect of library compounds

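Phenotypic screen: M. tuberculosis growth, glucose 7H9 medium, 3 days; the read-out is not stated. Tested at 50 µM. Higher reads as more growth inhibition (inferred: compounds with an IC50 in retests scored well above the rest). About 69,000 compounds were tested under these conditions; 1.1% (about 760) showed 50% or more at least once.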

Results are given as percent effect.
The controls that fix the scale are not given in the record; negative values are as filed.
This is an unselected part of the compounds tested.
Two or more numbers in one place are separate tests of the same structure; such repeats can differ widely.

Compound	Percent Effect
CN(C)c1nc2c(c(NCc3nnc4n3CCCCC4)n1)CCNC2	-24.67% and -4.445%
COc1ccc(F)cc1S(=O)(=O)NCC(O)c1sccc1C (stereo not drawn)	0.8371% and 18.17%
Cc1cc(C)n(C2CCCN(C(=O)c3cccc4[nH]ncc34)C2)n1 (stereo not drawn)	8.036%
Cc1ccc(N2CCCC(N(C)c3ncnc4c3CCC4)C2)nn1 (stereo not drawn)	-17.19%
Oc1ccc(CCC2CCCCN2Cc2noc(C3CC3)n2)cc1 (stereo not drawn)	26.65%
Cc1[nH]c(-c2ccccc2)nc1C(=O)N1CC[C@H](CO)[C@@H](O)C1	-7.202%
Cc1ccc(CN[C@@H]2COC[C@H]2Cc2cc(C)no2)cc1.O=C(O)CC(O)(CC(=O)O)C(=O)O	-6.832%
CCc1nc(C)sc1C(=O)N1CCN(c2ncccc2C)CC1	6.644%
CC(C)S(=O)(=O)CCN1CCc2c(ncn2C2CC2)C1	31.58%
O=C(O)C(F)(F)F.[H][C@@]12OCCN(C(=O)c3ccc(C)o3)[C@@]1([H])CC[C@H]2OCCN(C)C	14.55% and -0.3856%
COc1ccc(OCc2cc(C(=O)N3CCSCC3)n[nH]2)c(Cl)c1	4.291%
CC(Oc1ccc2c(c1)OCO2)C(=O)N1CCC(N2CCCC2)CC1 (stereo not drawn)	5.198%
Cc1nc(NCCc2ccc(Cl)cc2)cc(C(=O)N2CCOCC2)n1	11.25%
COc1c(F)cc(-c2cccc3c2OC(CN)C3)cc1F (stereo not drawn)	44.48% and 48.66%
COC(=O)C1(NCc2nc(C)c(C)o2)CCC(C)CC1 (stereo not drawn)	7.408%
O=C(O)C(F)(F)F.[H][C@@]12CN(CC)C[C@]1([H])[C@H](OC)CCN2S(=O)(=O)c1ccccc1	-19.72%
Cn1cc(CN2CCC3(C2)CN(Cc2ccsc2)C3)cn1.O=C(O)C(F)(F)F.O=C(O)C(F)(F)F	-20.55%
CC(NC(=O)NCCCn1cncn1)c1ccccc1Cl (stereo not drawn)	2.771%
Cc1nc(C(C)C)sc1C(=O)N(C)Cc1nc(-c2ccccn2)no1	2.52% and 4.773%
O=C(Nc1ccc2ncccc2c1)C1CC(=O)N(Cc2ccccn2)C1 (stereo not drawn)	3.454%
CN(Cc1cnn(C)c1)C(=O)NCCc1ccc2c(c1)OCO2	-32.49%
Cc1ccc(N2CCCC(NCc3cccs3)C2)nn1 (stereo not drawn)	-18.01%
Cc1ccc(S(=O)(=O)NC(=O)c2cccc3c2OCCO3)c(C)c1	-8.212% and -26.04%
COc1cc(C)c(C2CC(=O)Nc3cc(NS(C)(=O)=O)ccc32)cc1C (stereo not drawn)	8.323%
O=C(O)[C@@H]1CN(C(=O)CSCC2CC2)C[C@H]1c1ccccn1	9.697%
CN1CCN(c2ncnc3c2c(C(=O)NC2CC2)c2ccccn23)CC1	-27.14%
CC(C(=O)N1CCN(c2ccc(F)cc2)CC1)n1ccnc1 (stereo not drawn)	3.326%
CCOC(=O)N1CCN(CC(=O)Nc2ccc(F)cc2Cl)CC1	-16.27%
[H][C@]12CCN(C(=O)NCc3ccccc3C)CC[C@@]1([H])S(=O)(=O)N(C)C2	-24.2%
Cc1cc(C[C@@H]2COC[C@@H]2NC(=O)CNC(=O)N(C)C)on1	-51.15%
CC(CNC(=O)c1cc(Cn2cnc3ccccc32)[nH]n1)N1CCCC1 (stereo not drawn)	13.37% and 24.22%
CN(C)CCN(Cc1ccccc1)C(=O)CN1CCCNC1=O	-15.2%
Cc1noc(NC(=O)c2ccc(Br)o2)n1	-1.385%
Cc1cccc(OCCN2CCN(Cc3cnn(CCO)c3)CC2)c1	-10.12%
O=C(CCc1ccsc1)N1CCC(C(=O)O)(c2ccccc2)CC1	35.02% and 4.077%
CC(C)c1noc(CCC(=O)N2CCSCC2)n1	-4.656%
COCCN(CC1CC1)c1nc(CCN)nc2sc(C)c(C)c12	43.79%
[H][C@]12CC[C@]([H])(CN(S(=O)(=O)c3cccc(Cl)c3)C1)N(CCOC)C2=O	-28.54%
O=C(NCCSc1ccccc1)[C@H]1CNC[C@H](C(=O)N2CCOCC2)C1	-21.91%
CCN(CC1CCOC1)C(=O)c1ccccc1S(=O)(=O)CC (stereo not drawn)	-13.96%
Cc1sc2nc(CCN)nc(N(C)CCCC3CCCO3)c2c1C (stereo not drawn)	24.04%
COc1ccc(Cl)cc1C(=O)NCCNc1cnccn1	2.147% and 1.222%
O=C(CCn1nnc2ccccc2c1=O)N(CC1CCOC1)C1CC1 (stereo not drawn)	-27.25%
Cc1ccnc(OCC(=O)N2CCC(C(N)=O)CC2)n1	6.258% and -0.1847%
Cc1ccc(C)c(OCCNC(=O)C2CCOC2)c1 (stereo not drawn)	-9.514%
CCOc1ncnc2c1CCN(C(=O)NCc1cccnc1)CC2.O=C(O)C(F)(F)F	-1.212% and 0.8033%
O=C(O)C(F)(F)F.[H][C@@]12CCN(c3cccc(F)c3)C[C@@]1([H])O[C@@H](C(=O)N1CCCCO1)C2	30.43%
COCCOc1ccc(-c2noc([C@@H]3CCCN3C3CCC3)n2)cn1	5.507% and -23.59%

From ChEMBL document CHEMBL3988442, “University of Dundee, Small-Polar-MMV Screening Library” (2021).